Results reported in paper PMC3692431, “Anticonvulsant Activity of B2, an Adenosine Analog, on Chemical Convulsant-Induced Seizures” (PLoS ONE, 2013).

System: picrotoxin-induced seizures
Type: in vivo, mice
Conditions: 10 mg/kg i.p.; picrotoxin 3.5 mg/kg; P<0.001
Description: KA was dissolved in saline and the pH was adjusted to neutrality. The final concentration of KA was 0.7 µg/µl, and the convulsant dose was 1 µl (i.c.v.). […] The selective adenosine receptor antagonist DPCPX or SCH58261 was administered (i.p.) 5 min before administration of B2 or vehicle.
The latency of seizure onset, number of seizures, and mortality rate was recorded for the picrotoxin-injected mice. For the PTZ-injected mice, we recorded the latency of seizure onset, number of seizures, and presence of clonic seizures.

CN1C(=O)CN=C(c2ccccc2)c2cc(Cl)ccc21 [Diazepam, diazepam, reference compound]
protection against picrotoxin-induced seizures: significantly protected
